Measurements reported in PubChem BioAssay AID1259254 (NCATS, 2017).

Assay: 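Genome-wide screen for genes that prevent DNA re-replication in cancer cells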 (primary screen)
Cell system: human HCT116 colorectal cancer cells
Reagent: single siRNA against human genes
Duration: 3 days
Detection: 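Nuclei stained with Hoechst and imaged; cell-cycle phase assigned by DNA content; G2 share scaled per plate, non-targeting siRNA 0%, GMNN siRNA 100%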
Reading the numbers: G2 robust z-score and G2 cells, % of GMNN control: higher = more G2 cells, more excess DNA replication
Call rule: 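Active siRNAs have a G2 robust z of 5 or more median absolute deviations over the median, which in these data means about 38% or higher of GMNN control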
The deposit covers about 59,000 reagents; this is a random part of them. Over the whole deposit, about 1,550 (2.6%) are marked active. 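G2 share is only a proxy for re-replication; each gene was hit by three separate siRNAs, and active genes were retested.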 Reagents against one gene are numbered here. Not all columns of the deposit are shown. Not stated in the record: the amount of reagent.

{"Target gene": "PPA2", "reagent": 1, "G2 robust z-score": -0.921, "G2 cells, % of GMNN control": -3.52, "Outcome": "inactive"}
{"Target gene": "PPA2", "reagent": 2, "G2 robust z-score": 0.072, "G2 cells, % of GMNN control": 3.47, "Outcome": "inactive"}
{"Target gene": "PPA2", "reagent": 3, "G2 robust z-score": 0.951, "G2 cells, % of GMNN control": 9.66, "Outcome": "inactive"}
{"Target gene": "TBX15", "reagent": 1, "G2 robust z-score": 0.582, "G2 cells, % of GMNN control": 7.06, "Outcome": "inactive"}
{"Target gene": "TBX15", "reagent": 2, "G2 robust z-score": -0.521, "G2 cells, % of GMNN control": -0.699, "Outcome": "inactive"}
{"Target gene": "TBX15", "reagent": 3, "G2 robust z-score": 0.534, "G2 cells, % of GMNN control": 6.72, "Outcome": "inactive"}
{"Target gene": "SRRM2", "reagent": 1, "G2 robust z-score": -0.859, "G2 cells, % of GMNN control": -3.08, "Outcome": "inactive"}
{"Target gene": "SRRM2", "reagent": 2, "G2 robust z-score": 1.75, "G2 cells, % of GMNN control": 15.3, "Outcome": "inactive"}
{"Target gene": "SRRM2", "reagent": 3, "G2 robust z-score": -0.385, "G2 cells, % of GMNN control": 0.256, "Outcome": "inactive"}
{"Target gene": "WDR24", "reagent": 1, "G2 robust z-score": 0.775, "G2 cells, % of GMNN control": 8.42, "Outcome": "inactive"}
{"Target gene": "WDR24", "reagent": 2, "G2 robust z-score": -1.2, "G2 cells, % of GMNN control": -5.5, "Outcome": "inactive"}
{"Target gene": "WDR24", "reagent": 3, "G2 robust z-score": -0.222, "G2 cells, % of GMNN control": 1.41, "Outcome": "inactive"}
{"Target gene": "PIK3CD-AS1", "reagent": 1, "G2 robust z-score": -0.474, "G2 cells, % of GMNN control": -0.371, "Outcome": "inactive"}
{"Target gene": "PIK3CD-AS1", "reagent": 2, "G2 robust z-score": 0.21, "G2 cells, % of GMNN control": 4.44, "Outcome": "inactive"}
{"Target gene": "PIK3CD-AS1", "reagent": 3, "G2 robust z-score": -0.011, "G2 cells, % of GMNN control": 2.89, "Outcome": "inactive"}
{"Target gene": "GPR15", "reagent": 1, "G2 robust z-score": 0.69, "G2 cells, % of GMNN control": 7.82, "Outcome": "inactive"}
{"Target gene": "GPR15", "reagent": 2, "G2 robust z-score": -0.32, "G2 cells, % of GMNN control": 0.719, "Outcome": "inactive"}
{"Target gene": "GPR15", "reagent": 3, "G2 robust z-score": 1.38, "G2 cells, % of GMNN control": 12.7, "Outcome": "inactive"}
{"Target gene": "BUD31", "reagent": 1, "G2 robust z-score": -0.512, "G2 cells, % of GMNN control": -0.635, "Outcome": "inactive"}
{"Target gene": "BUD31", "reagent": 2, "G2 robust z-score": 0.906, "G2 cells, % of GMNN control": 9.34, "Outcome": "inactive"}
{"Target gene": "BUD31", "reagent": 3, "G2 robust z-score": 1.72, "G2 cells, % of GMNN control": 15, "Outcome": "inactive"}
{"Target gene": "TEX46", "reagent": 1, "G2 robust z-score": 0.204, "G2 cells, % of GMNN control": 4.4, "Outcome": "inactive"}
{"Target gene": "TEX46", "reagent": 2, "G2 robust z-score": -0.512, "G2 cells, % of GMNN control": -0.635, "Outcome": "inactive"}
{"Target gene": "TEX46", "reagent": 3, "G2 robust z-score": 1.89, "G2 cells, % of GMNN control": 16.3, "Outcome": "inactive"}
{"Target gene": "LGALS3BP", "reagent": 1, "G2 robust z-score": -1.16, "G2 cells, % of GMNN control": -5.22, "Outcome": "inactive"}
{"Target gene": "LGALS3BP", "reagent": 2, "G2 robust z-score": 0.263, "G2 cells, % of GMNN control": 4.81, "Outcome": "inactive"}
{"Target gene": "LGALS3BP", "reagent": 3, "G2 robust z-score": -0.564, "G2 cells, % of GMNN control": -0.998, "Outcome": "inactive"}
{"Target gene": "GP5", "reagent": 1, "G2 robust z-score": 0.719, "G2 cells, % of GMNN control": 8.03, "Outcome": "inactive"}
{"Target gene": "GP5", "reagent": 2, "G2 robust z-score": -1.14, "G2 cells, % of GMNN control": -5.06, "Outcome": "inactive"}
{"Target gene": "GP5", "reagent": 3, "G2 robust z-score": 1.68, "G2 cells, % of GMNN control": 14.8, "Outcome": "inactive"}

3 entries from above, reduced to “G2 robust z-score”:
LGALS3BP #2	0.263
LGALS3BP #3	-0.564
GP5 #1	0.719
